These are yes or no findings as the source states them, for the method shown. In cells and extracts the contact can be indirect. These calls come from enrichment with a bait or labelling near it, and not all partners need be listed.
Biological target: SLC7A5-FLAG (solute carrier family seven member 5/L-type amino acid transporter 1, FLAG-tagged) (UniProt Q9Z127)
Experiment: affinity purification with mass spectrometry; label-free proteomics of anti-FLAG immunoprecipitates from SLC7A5-FLAG-transfected RAW264.7 cells, anti-FLAG versus anti-IgG, n = 3/group

Amino acid sequences for entries named in this document (tags omitted).
UniProt Q9Z127: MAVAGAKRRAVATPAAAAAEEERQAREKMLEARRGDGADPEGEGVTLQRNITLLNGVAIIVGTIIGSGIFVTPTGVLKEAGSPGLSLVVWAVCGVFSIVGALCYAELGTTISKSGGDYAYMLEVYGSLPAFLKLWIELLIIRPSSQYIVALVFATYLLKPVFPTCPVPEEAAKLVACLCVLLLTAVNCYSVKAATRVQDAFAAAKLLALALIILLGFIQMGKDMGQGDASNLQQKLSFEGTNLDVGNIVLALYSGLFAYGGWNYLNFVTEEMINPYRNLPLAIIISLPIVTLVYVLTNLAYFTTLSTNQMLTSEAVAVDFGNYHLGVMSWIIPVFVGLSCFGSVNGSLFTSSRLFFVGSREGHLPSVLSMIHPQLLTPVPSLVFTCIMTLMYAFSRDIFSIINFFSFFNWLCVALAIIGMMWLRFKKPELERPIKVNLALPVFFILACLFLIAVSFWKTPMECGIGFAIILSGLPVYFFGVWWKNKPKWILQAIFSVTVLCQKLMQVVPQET

- binding: binds
B1: endogenous PGAM5 (phosphoglycerate mutase 5) of RAW264.7 cells (protein, UniProt Q8BX10 1-288)
chain: MAFRQALQLAACGLAGGSAAVLFSAVAVGKPRGGGDADTRATEPPAWTGARAGRGVWDTNWDRREPLSLINLKKRNVESGEDELTSRLDHYKAKATRHIFLIRHSQYHVDGSLEKDRTLTPLGREQAELTGLRLASLGLKFNKIVHSSMTRAVETTDIISKHLPGVSRVSTDLLREGAPIEPDPPVSHWKPEAVQYYEDGARIEAAFRNYIHRADARQEEDSYEIFICHANVIRYIVCRALQFPPEGWLRLSLNNGSITHLVIRPNGRVALRTLGDTGFMPPDKITRS

Reference: PMC12866778
